Source: publication PMC4792581
No constants are given. Whether binding was seen depends on the method and setting. For some of these results: Binding seen in cells or lysates may run through a third protein. Some binding calls cover weakened binding; strength is not graded here.

Protein sequences, listed by entry. Tags and fused reporters are not part of them.
UniProt P49427: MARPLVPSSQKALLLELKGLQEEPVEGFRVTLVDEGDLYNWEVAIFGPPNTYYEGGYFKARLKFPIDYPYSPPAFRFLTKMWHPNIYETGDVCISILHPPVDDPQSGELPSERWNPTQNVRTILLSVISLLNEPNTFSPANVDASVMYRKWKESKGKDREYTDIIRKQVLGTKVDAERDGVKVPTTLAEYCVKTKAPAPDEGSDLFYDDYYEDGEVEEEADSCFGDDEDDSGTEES
UniProt P10415: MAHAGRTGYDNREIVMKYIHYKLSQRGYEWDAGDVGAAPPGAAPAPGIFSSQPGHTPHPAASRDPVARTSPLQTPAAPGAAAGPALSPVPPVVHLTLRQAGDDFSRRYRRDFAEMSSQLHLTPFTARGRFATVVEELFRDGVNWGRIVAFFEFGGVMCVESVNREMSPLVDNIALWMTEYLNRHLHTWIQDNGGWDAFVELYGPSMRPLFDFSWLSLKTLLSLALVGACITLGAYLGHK

Tests used:
[1] = target: recombinant UbcH3 (UniProt P49427); test: pull-down; Ni-NTA pull-down, in vitro binding of PPARα with recombinant UbcH3; which of the two was held on the resin is not stated; both purified
[2] = target: Bcl2 (B-cell lymphoma 2), endogenous (human (endogenous in human cell lines)) (UniProt P10415); test: co-IP; HEK293T transfected with vector, PPARα or PPARα/C102A; lysates immunoprecipitated and blotted; in Figure 3D 36 h, with MG132 (10 μM) for 6 h before lysis
[3] = target: Bcl2 (B-cell lymphoma 2), endogenous (human (endogenous in human cell lines)) (UniProt P10415); test: co-IP; immunoprecipitation from cell lysates and Western blot, endogenous proteins; cell line and precipitating antibody not stated

Row | Binder | binding [2] | further results
1 | PPARα used in the in vitro Ni-NTA pull-down (protein, UniProt Q07869 1-468) MVDTESPLCPLSPLEAGDLESPLSEEFLQEMGNIQEISQSIGEDSSGSFGFTEYQYLGSCPGSDGSVITDTLSPASSPSSVTYPVVPGSVDESPSGALNIECRICGDKASGYHYGVHACEGCKGFFRRTIRLKLVYDKCDRSCKIQKKNRNKCQYCRFHKCLSVGMSHNAIRFGRMPRSEKAKLKAEILTCEHDIEDSETADLKSLAKRIYEAYLKNFNMNKVKARVILSGKASNNPPFVIHDMETLCMAEKTLVAKLVANGIQNKEAEVRIFHCCQCTSVETVTELTEFAKAIPGFANLDLNDQVTLLKYGVYEAIFAMLSSVMNKDGMLVAYGNGFITREFLKSLRKPFCDIMEPKFDFAMKFNALELDDSDISLFVAAIICCGDRPGLLNVGHIEKMQEGIVHVLRLHLQSNHPDDIFLFPKLLQKMADLRQLVTEHAQLVQIIKKTESDAALHPLLQEIYRDMY | – | binding [1]: binds
2 | PPARα (peroxisome-proliferator-activated receptor α), endogenous (protein, UniProt Q07869 1-468) MVDTESPLCPLSPLEAGDLESPLSEEFLQEMGNIQEISQSIGEDSSGSFGFTEYQYLGSCPGSDGSVITDTLSPASSPSSVTYPVVPGSVDESPSGALNIECRICGDKASGYHYGVHACEGCKGFFRRTIRLKLVYDKCDRSCKIQKKNRNKCQYCRFHKCLSVGMSHNAIRFGRMPRSEKAKLKAEILTCEHDIEDSETADLKSLAKRIYEAYLKNFNMNKVKARVILSGKASNNPPFVIHDMETLCMAEKTLVAKLVANGIQNKEAEVRIFHCCQCTSVETVTELTEFAKAIPGFANLDLNDQVTLLKYGVYEAIFAMLSSVMNKDGMLVAYGNGFITREFLKSLRKPFCDIMEPKFDFAMKFNALELDDSDISLFVAAIICCGDRPGLLNVGHIEKMQEGIVHVLRLHLQSNHPDDIFLFPKLLQKMADLRQLVTEHAQLVQIIKKTESDAALHPLLQEIYRDMY | – | binding [3]: binds

Continued, in another order:

Row | binding [2] | Binder | further results
3 | binds | PPARα, overexpressed from pcDNA3 (protein, UniProt Q07869 1-468) MVDTESPLCPLSPLEAGDLESPLSEEFLQEMGNIQEISQSIGEDSSGSFGFTEYQYLGSCPGSDGSVITDTLSPASSPSSVTYPVVPGSVDESPSGALNIECRICGDKASGYHYGVHACEGCKGFFRRTIRLKLVYDKCDRSCKIQKKNRNKCQYCRFHKCLSVGMSHNAIRFGRMPRSEKAKLKAEILTCEHDIEDSETADLKSLAKRIYEAYLKNFNMNKVKARVILSGKASNNPPFVIHDMETLCMAEKTLVAKLVANGIQNKEAEVRIFHCCQCTSVETVTELTEFAKAIPGFANLDLNDQVTLLKYGVYEAIFAMLSSVMNKDGMLVAYGNGFITREFLKSLRKPFCDIMEPKFDFAMKFNALELDDSDISLFVAAIICCGDRPGLLNVGHIEKMQEGIVHVLRLHLQSNHPDDIFLFPKLLQKMADLRQLVTEHAQLVQIIKKTESDAALHPLLQEIYRDMY | –
4 | no binding | PPARα/C102A mutant (protein, UniProt Q07869 1-468) MVDTESPLCPLSPLEAGDLESPLSEEFLQEMGNIQEISQSIGEDSSGSFGFTEYQYLGSCPGSDGSVITDTLSPASSPSSVTYPVVPGSVDESPSGALNIEARICGDKASGYHYGVHACEGCKGFFRRTIRLKLVYDKCDRSCKIQKKNRNKCQYCRFHKCLSVGMSHNAIRFGRMPRSEKAKLKAEILTCEHDIEDSETADLKSLAKRIYEAYLKNFNMNKVKARVILSGKASNNPPFVIHDMETLCMAEKTLVAKLVANGIQNKEAEVRIFHCCQCTSVETVTELTEFAKAIPGFANLDLNDQVTLLKYGVYEAIFAMLSSVMNKDGMLVAYGNGFITREFLKSLRKPFCDIMEPKFDFAMKFNALELDDSDISLFVAAIICCGDRPGLLNVGHIEKMQEGIVHVLRLHLQSNHPDDIFLFPKLLQKMADLRQLVTEHAQLVQIIKKTESDAALHPLLQEIYRDMY | –
